Measured values: patent US20150056162A1
These are yes or no findings as the source states them, for the method shown. Some binding calls cover weakened binding; strength is not graded here.

Chains of the proteins cited; added tags and fusions are not shown. Lines headed by an entry give the natural chain unless they say otherwise; changes in a name come on top.
UniProt P35225: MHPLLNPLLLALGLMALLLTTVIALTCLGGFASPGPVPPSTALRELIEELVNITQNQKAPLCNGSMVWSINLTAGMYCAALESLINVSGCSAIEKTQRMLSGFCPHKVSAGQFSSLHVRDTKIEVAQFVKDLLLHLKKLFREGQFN

Molecular target: T1, IL-13Rα2, biotinylated (human) (UniProt Q14627)
T1 sequence (biotinylated (site not stated), looked up): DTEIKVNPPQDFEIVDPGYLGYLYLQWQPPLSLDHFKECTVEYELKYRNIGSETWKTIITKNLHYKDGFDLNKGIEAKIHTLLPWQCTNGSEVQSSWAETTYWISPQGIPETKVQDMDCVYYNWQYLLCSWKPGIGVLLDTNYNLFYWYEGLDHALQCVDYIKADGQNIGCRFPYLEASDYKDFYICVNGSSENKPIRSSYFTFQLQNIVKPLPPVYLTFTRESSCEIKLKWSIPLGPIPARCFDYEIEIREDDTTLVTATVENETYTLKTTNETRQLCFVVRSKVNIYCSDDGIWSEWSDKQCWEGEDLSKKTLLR
Assay: SPR, biotinylated receptor captured on SA chip (FIG. 2A)

binding: binds
Substance: IL-13 variant C11 (from UniProt P35225 34-146) (ligand)
